Experimental data reported in patent US7695731B2 (Cordis Corporation, priority 2004, dated 2010).
At least one compound was matched to its structure with a doubt left.

Columns and labels:
[1] = tested on: monocyte chemotactic protein (MCP-1); assay: Cytokine levels in vascular tissue after delivery from a stent; assay type: in vivo; settings: delivered from a stent
Porcine = assay: Animal studies with rapamycin-coated stents, porcine (Table 3); assay type: in vivo; settings: porcine and rabbit models, nonerodible polymeric stent coating, 35-430 ug/15-18 mm coronary stent, maximal at about 28 to 30 days

SMILES: CO[C@H]1C[C@@H]2CC[C@@H](C)[C@@](O)(O2)C(=O)C(=O)N2CCCC[C@H]2C(=O)O[C@H]([C@H](C)C[C@@H]2CC[C@@H](O)[C@H](OC)C2)CC(=O)[C@H](C)/C=C(\C)[C@@H](O)[C@@H](OC)C(=O)[C@H](C)C[C@H](C)/C=C/C=C/C=C/1C [Rapamycin, rapamycin]
- reduction of MCP-1 levels in the vascular wall [1]: highly effective in reducing monocyte chemotactic protein (MCP-1) levels
- peak reduction in neointimal hyperplasia (Porcine): fifty to fifty-five
